US5563037A, “Homogeneous method for assay of double-stranded nucleic acids using fluorescent dyes and kit useful therein” (Johnson & Johnson Clinical Diagnostics, Inc., priority 1995, dated 1996)

Tested on: double-stranded nucleic acids
Assay: KC value (Kp × dye concentration × 2)
Assay type: binding
Settings: KC = Kp × dye concentration × 2

Compound | "KC" Value
TOTO-3 [reference compound] | 25
C[n+]1c(C=C2C=CN(CCC[N+](C)(C)C)c3ccccc32)oc2ccccc21 [Compound E] | 8.2
C[n+]1c(C=CC=C2C=CN(CCC[N+](C)(C)C)c3ccccc32)sc2ccccc21 [Compound H] | 6.2
C[n+]1c(C=C2C=CN(CCC[N+](C)(C)C)C=C2)sc2ccccc21 [Compound C] | 3.2
C[n+]1c(C=C2C=CN(CCC[N+](C)(C)CCC[N+](C)(C)CCCN3C=CC(=Cc4oc5ccccc5[n+]4C)c4ccccc43)c3ccccc32)oc2ccccc21 [YOYO-1] | 60
C[n+]1c(C=C2C=CN(CCC[N+](C)(C)C)c3ccccc32)sc2ccccc21 [Compound G] | 20
CN1/C(=C/c2cc[n+](CCC[N+](C)(C)CCC[N+](C)(C)CCC[n+]3ccc(/C=C4\Sc5ccccc5N4C)c4ccccc43)c3ccccc23)Sc2ccccc21.[I-].[I-].[I-].[I-] [TOTO-1, reference compound] | 110
